Experimental data from PubChem BioAssay AID651640 (Broad Institute, 2012).
Out of some 350,000 compounds screened, about 6,000 (1.7%) were called active. This list was built around the results that the source calls inconclusive (neither active nor inactive); the mix of calls is not that of the screen. No stated cut-off is given here; in the data, active means CPE inhibition above about 20% (passing the limit was not always enough); inconclusive means no clear call, values can overlap the other calls; tested in BHK-21 cells. The source holds several records for some structures; these can differ, active in one and inactive in another.

Assay: protection of cells from dengue 2 killing – plate reader, single concentration, primary screen (AID 651640);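 further: 0% = median of neutral control wells and 100% = median of positive control wells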
Settings: DENV2-infected cells, cytopathic effect rescue, at 9.99 µM, stronger effect = higher value

SMILES	CPE inhibition
C[C@@H]1CN([C@@H](C)CO)C(=O)c2cccc(NC(=O)Nc3ccccc3)c2O[C@@H]1CN(C)C(=O)Nc1ccc(C(F)(F)F)cc1	active: 38%
Cc1ccc2c(c1)-n1c(nc3ccc(C)cc3c1=O)C(Cc1ccc(O)cc1)NC2=O (stereo not given)	active: 33.2%
CC(=O)C[C@H](O)CC(=O)[C@H]1OC(=O)[C@H](C)C/C=C\Cc2ccccc21	inconclusive: 20%
C[C@H](CO)N1C[C@H](C)[C@@H](CN(C)C(=O)Nc2ccc(F)cc2)Oc2c(NC(=O)C3CCCCC3)cccc2C1=O	inconclusive: 24.8%
O=C(NNC(=O)C1CCCCC1)c1ccc(Br)cc1	inactive: 6.85%
COc1cc(NC2=Nc3cccc4cccc2c34)cc(OC)c1OC	inconclusive: 29.7%
O=C(NCCN1CCC(n2c(=O)[nH]c3ccccc32)CC1)c1ccc(Cl)cc1Cl	inconclusive: 29.8%
C[C@@H]1CN([C@H](C)CO)C(=O)Cc2cc(NC(=O)Cc3ccccc3)ccc2O[C@@H]1CN(C)C(=O)NC1CCCCC1	inconclusive: 43.2%
O=C(O)c1ccccc1C=NNc1ccc([N+](=O)[O-])cn1	inactive: -3.57%
COc1ccc(S(=O)(=O)N(C)C[C@H]2OCCCC[C@H](C)Oc3ccc(N(C)C)cc3C(=O)N([C@H](C)CO)C[C@@H]2C)cc1	active: 23.3%
O=C(COC(=O)Cc1ccccc1F)Nc1ccc2c(c1)OCCO2	inconclusive: 72.9%
Cc1cc(C)n(CCC(=O)Nc2ccc3c(c2)OCCO3)n1	inconclusive: 25.3%
Cc1ccc(S(=O)(=O)Nc2ccc3c(c2)C(=O)N([C@H](C)CO)C[C@H](C)[C@H](CN(C)Cc2ccc(C(F)(F)F)cc2)OCCCC[C@@H](C)O3)cc1	active: 26.5%
COc1cccc(C(=O)NC2CCNCC2)c1	inconclusive: 33.6%
CCCC(=O)N1CC2(C1)CN(C(=O)C1CCCCC1)[C@@H](CO)c1[nH]c3cc(OC)ccc3c12	active: 21.6%
CC1=CC(c2ccccc2)n2nc(NC(=O)CCC(=O)O)nc2N1 (stereo not given)	inactive: 3.05%
C[C@@H]1CN([C@H](C)CO)C(=O)c2cc(-c3ccc(C(=O)N(C)C)cc3)cnc2O[C@@H]1CN(C)C	inactive: 11.1%
C[C@@H]1CN([C@H](C)CO)S(=O)(=O)c2ccc(-c3cccc(C#N)c3)cc2O[C@H]1CN(C)C(=O)C1CC1	inactive: 18.9%
CN(Cc1ccccc1)C(=O)c1cccc(NC(=O)Cc2ccc(NC(=O)C3CCCN(C(=O)CCc4ccccc4)C3)cc2)c1 (stereo not given)	active: 63.9%
Cn1cc(S(=O)(=O)N2CCC3(CC2)OCCO3)c(=O)n(C)c1=O	inconclusive: 20.3%

4 entries from above, ordered by SMILES length, rising:
SMILES	CPE inhibition
COc1cccc(C(=O)NC2CCNCC2)c1	inconclusive: 33.6%
O=C(NNC(=O)C1CCCCC1)c1ccc(Br)cc1	inactive: 6.85%
O=C(COC(=O)Cc1ccccc1F)Nc1ccc2c(c1)OCCO2	inconclusive: 72.9%
O=C(O)c1ccccc1C=NNc1ccc([N+](=O)[O-])cn1	inactive: -3.57%
